Data from patent US20210102195A1.
Substitutions are numbered along the chain they refer to. These are yes or no findings as the source states them, for the method shown. Some results given as binding are weak or reduced against the parent protein; the word gives no strength. One block for each binder: values may come before it.

Tests used:
CRTH2R [1] = molecular target: T1, CRTH2R (UniProt Q9Y5Y4); test: flow cytometry (MFI), CHO CRTH2R-positive cells against parental CHO cells, 3-fold titration from 100 nM; grey = CRTH2R cells, black = parental cells (no legend on the panel)
T1 sequence (looked up): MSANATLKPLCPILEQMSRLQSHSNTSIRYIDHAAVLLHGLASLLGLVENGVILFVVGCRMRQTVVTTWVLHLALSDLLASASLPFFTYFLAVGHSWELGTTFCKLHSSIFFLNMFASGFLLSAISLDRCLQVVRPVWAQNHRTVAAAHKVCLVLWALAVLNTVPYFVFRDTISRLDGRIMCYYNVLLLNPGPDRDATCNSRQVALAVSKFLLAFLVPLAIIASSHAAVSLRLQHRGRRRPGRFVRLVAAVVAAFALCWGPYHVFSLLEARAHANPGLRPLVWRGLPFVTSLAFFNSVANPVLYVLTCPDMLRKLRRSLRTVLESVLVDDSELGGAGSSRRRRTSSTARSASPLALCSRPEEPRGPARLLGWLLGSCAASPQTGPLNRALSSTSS

CRTH2R [2] = molecular target: T1, CRTH2R; test: flow cytometry, gated dot plot at 100 nM IgG (RL1-A APC against BL1-A FITC)
CRTH2R [3] = molecular target: T1, CRTH2R; test: flow cytometry, APC histogram at 100 nM IgG
CRTH2R [4] = molecular target: T1, CRTH2R; test: flow cytometry (MFI), CHO CRTH2R-positive cells against parental CHO cells; same panel as in FIG. 15B; grey = CRTH2R cells, black = parental cells (no legend on the panel)
CRTH2R [5] = molecular target: T1, CRTH2R; test: flow cytometry (MFI), CHO CRTH2R-positive cells against parental CHO cells; same panel as in FIG. 15E; grey = CRTH2R cells, black = parental cells (no legend on the panel)
CRTH2R [6] = molecular target: T1, CRTH2R; test: flow cytometry (MFI), CHO CRTH2R-positive cells against parental CHO cells; same panel as in FIG. 15D; grey = CRTH2R cells, black = parental cells (no legend on the panel)
CRTH2R [7] = molecular target: T1, CRTH2R; test: flow cytometry (MFI), titration 0.05-100 nM on CRTH2R cells against parent cells; no legend on the panel: grey curve taken as the CRTH2R cells, black as the parent cells
CRTH2R [8] = molecular target: T1, CRTH2R; test: flow cytometry, CRTH2R cells against parent cells (RL1-A APC against BL1-A FITC)
CRTH2R [9] = molecular target: T1, CRTH2R; test: flow cytometry (MFI), CHO CRTH2R-positive cells against parental CHO cells; same panel as in FIG. 15C; grey = CRTH2R cells, black = parental cells (no legend on the panel)

B1: CRTH2-74 (antibody)
VH: QVQLVESGGGVVQPGRSLRLSCAASGFSFSEYGIHWVRQAPGKGLEWVAVISYEGSNEYYADSVKGRFTISRDNSKNTLYLQMNSLRAEDTAVYYCARANQHFGPVAGGATPSEEPGSQLTRAELGWDAPPGQESLADELLQLGTEHGYHYYGMDVWGQGTLVTVSS
VL: QSVLTQPPSVSAAPGQKVTISCSGSTSNIGKNYVSWYQQLPGTAPKLLIYDDDERPSGIPDRFSGSMSGTSATLGITGLQTGDEADYYCEAWDADLSGAVFGGGTKLTVL
binding (CRTH2R [1]): binds

B2: CRTH2-27 (antibody, V domains shown)
VH: QVQLVESGGGVVQPGRSLRLSCAASGFTFDNYGMHWVRQAPGKGLEWVAVISYEGSNKKYADSVKGRFTISRDNSKNTLYLQMNSLRAEDTAVYYCARDMYYDFGSIYGEDVVGELPEVVPADDAFDIWGQGTLVTVSS
VL: QSALTQPASVSGSPGQSITISCTGTSNDVGAYNFVSWYQQHPGKAPKLMIYDISNRPSGVSNRFSGSKSGNTASLTISGLQAEDEADYYCSSYTRSNTRVFGGGTKLTVL
binding (CRTH2R [2]): binds
binding (CRTH2R [3]): binds
binding (CRTH2R [1]): binds
binding (CRTH2R [4]): binds

B3: CRTH2-19 (antibody, V domains shown)
VH: QVQLVQSGAEVKKPGSSVKVSCKASGGTFSSHAINWVRQAPGQGLEWMGRIIPIVGTTTYAQKFQGRVTITADESTSTAYMELSSLRSEDTAVYYCARDMYYDFDYFGLTLTGDRNDDEVVPADDAFDIWGQGTLVTVSS
VL: QSALTQPASVSGSPGQSITISCTGTSSDVGGYDYVTWYQQHPGKAPKLMIYDVDTRPSGVSNRFSGSKSGNTASLTISGLQAEDEADYYCSSYTTSTSYVFGGGTKLTVL
binding (CRTH2R [1]): binds

B5: CRTH2 57 (antibody, V domains shown)
VH: QVQLVQSGAEVKKPGSSVKVSCKASGGTFSSYAMSWVRQAPGQGLEWMGGIIPLFGTTDYAQKFQGRVTITADESTSTAYMELSSLRSEDTAVYYCARANQHFVKIQGAPVSTPVPGFGTTGYHYYGMDVWGQGTLVTVSS
VL: QSVLTQPPSVSAAPGQKVTISCSGSSSNIEDNYVSWYQQLPGTAPKLLIYDNFKRPSGIPDRFSGSKSGTSATLGITGLQTGDEADYYCGTWDTSLSAALFGGGTKLTVL
binding (CRTH2R [1]): binds

B6: CRTH2-15 (antibody, V domains shown)
VH: QVQLVQSGAEVKKPGSSVKVSCKASGGTFSTYAIDWVRQAPGQGLEWMGGIIPLFGSPNYAQKFQGRVTITADESTSTAYMELSSLRSEDTAVYYCARANQHFFLYEGTSSSWLHVGHARYGYHYYGMDVWGQGTLVTVSS
VL: B5 VL with S26G, E30G, D31S, F53I, K54R, G90A, T91A, S95R, A99G, L100V
binding (CRTH2R [1]): binds

B7: CRTH2 66 (antibody)
heavy chain (variable domain given): QVQLVESGGGVVQPGRSLRLSCAASGFDFSGYGMHWVRQAPGKGLEWVAVISYEGSNKFYADSVKGRFTISRDNSKNTLYLQMNSLRAEDTAVYYCARDLRELECEEWTIEVHGQEFAVHQDRGGVFSRGPCVDPRGVAGSFDVWGQGTLVTVSS
light chain (variable domain given): EIVMTQSPATLSVSPGERATLSCRASQGVGSNLAWYQQKPGQAPRLLIYRTSIRATGIPARFSGSGSGTEFTLTISSLQSEDFAVYYCQQYYSWPPLTFGGGTKVEIK
binding (CRTH2R [1]): binds

B8: CRTH2 25 (antibody, V domains shown)
VH: QVQLVQSGAEVKKPGSSVKVSCKASGGSFRSYGISWVRQAPGQGLEWMGRIIPLFGTPDYAQKFQGRVTITADESTSTAYMELSSLRSEDTAVYYCARDMYYDFEDVDEGSLYLDMGRTFEVVPADDAFDIWGQGTLVTVSS
VL: DIQMTQSPSSLSASVGDRVTITCRASQGISTYLNWYQQKPGKAPKLLIYATSSLQSGVPSRFSGSGSGTDFTLTISSLQPEDFATYYCQQSYSTPWTFGGGTKVEIK
binding (CRTH2R [1]): binds

B9: CRTH2 35 (antibody, V domains shown)
VH: QVQLVQSGAEVKKPGSSVKVSCKASGGTFRSYAISWVRQAPGQGLEWMGGIIPISGTTNYAQKFQGRVTITADESTSTAYMELSSLRSEDTAVYYCARANQHFTRIFGNYQIYFGHFGYHYYGMDVWGQGTLVTVSS
VL: QSALTQPASVSGSPGQSITISCTGTSSDIGGYEFVSWYQQHPGKAPKLMIYGVSRRPSGVSNRFSGSKSGNTASLTISGLQAEDEADYYCGSYTSSSTPYVFGGGTKLTVL
binding (CRTH2R [1]): binds

B11: CRTH2-42 (antibody)
VH: QVQLVESGGGVVQPGRSLRLSCAASGFAFSSYAMHWVRQAPGKGLEWVAVISYEGSNEYYADSVKGRFTISRDNSKNTLYLQMNSLRAEDTAVYYCARDLRELECEEWTVLQYGKFHMRWAESGEGSLSRGPCVDPRGVAGSFDVWGQGTLVTVSS
VL: B9 VL with I29V, E33R, F34Y, G52N, S54N, R55Y, G91S, T94R, P99L, Y100G
binding (CRTH2R [6]): binds
binding (CRTH2R [1]): binds

B16: CRTH2-32 (antibody, V domains shown)
VH: QVQLVESGGGVVQPGRSLRLSCAASGFTFSKHGMHWVRQAPGKGLEWVAFISYEGSEKYYADSVKGRFTISRDNSKNTLYLQMNSLRAEDTAVYYCARDMYYDFHYSTVGATYYYYLGSETEVVPADDAFDIWGQGTLVTVSS
VL: QSALTQPASVSGSPGQSITISCTGTSSGVGGYDYVSWYQQHPGKAPKLMIYDDNNRPSGVSNRFSGSKSGNTASLTISGLQAEDEADYYCSSYTGSSTLYVFGGGTKLTVL
binding (CRTH2R [1]): binds
binding (CRTH2R [9]): binds

Next, values leading:

binding (CRTH2R [1]): binds
B4: CRTH2-8 (antibody, V domains shown)
VH: QVQLVQSGAEVKKPGSSVKVSCKASGGTFTDYAISWVRQAPGQGLEWMGGIIPFFGSPNYAQKFQGRVTITADESTSTAYMELSSLRSEDTAVYYCARDMYYDFAAGLEGTITEVFDEEGHQGGTEVVPADDAFDIWGQGTLVTVSS
VL: B5 VL with E30G, D31K, F53N, K54Q, S97T, A98S, A99V, L100V

binding (CRTH2R [5]): binds
binding (CRTH2R [1]): binds
B10: CRTH2-50 (antibody, V domains shown)
VH: QVQLVQSGAEVKKPGSSVKVSCKASGGTFSSYALSWVRKAPGQGLEWMGGTIPIFGTVNYAQKFQGRVTITADESTSTAYMELSSLRSEDTAVYYCARANQHFTRVIGQPSPAVPSRGYIYHGYHYYGMDVWGQGTLVTVSS
VL: B9 VL with E33N, G52D, R55N, S58Q, G91S, S97N, P99Y, Y100V

binding (CRTH2R [1]): binds
B12: CRTH2-24 (antibody, V domains shown)
VH: QVQLVQSGAEVKKPGSSVKVSCKASGGSFSNYGISWVRQAPGQGLEWMGGIIPLIGTANYAQKFQGRVTITADESTSTAYMELSSLRSEDTAVYYCARDMYYDFTLGPQSIGPLGEVVPADDAFDIWGQGTLVTVSS
VL: QSVLTQPPSVSAAPGQKVTISCSGSSSNIGNNFVSWYQQLPGTAPKLLIYDNIQRPSGIPDRFSGSKSGTSATLGITGLQTGDEADYYCGTWDTSLSAVVFGGGTKLTVLR

binding (CRTH2R [1]): binds
B13: CRTH2-45 (antibody)
VH: QVQLVESGGGVVQPGRSLRLSCAASGFTFSHYAMHWVRQAPGKGLEWVADISHEGSNKYYADSVKGRFTISRDNSKNTLYLQMNSLRAEDTAVYYCARDGRGSLPRPKGGPTSGGGFSTNIGYGFVVQSYDSSEDSGGAFDIWGQGTLVTVSS
VL: QSVLTQPPSVSAAPGQKVTISCSGTSSNIENNYVSWYQQLPGTAPKLLIYDNVKRPSGIPDRFSGSKSGTSATLGITGLQTGDEADYYCGTWDNTVSAPWVFGGGTKLTVL

binding (CRTH2R [7]): binds
binding (CRTH2R [8]): binds
B14: CRTH2-41-51 (Fc fusion, not shown: a dimerising Fc or GST)
chain: EVQLVESGGGLVQPGGSLRLSCAASGGIFRFNAMGWFRQAPGKERELVAGISGSGGDTYYADSVKGRFTISADNSKNTAYLQMNSLKPEDTAVYYCAAFRGIMRPDWGQGTLVTVSS

binding (CRTH2R [1]): binds
B15: CRTH2 39 (antibody, V domains shown)
VH: QVQLVQSGAEVKKPGSSVKVSCKASVDTFSRYSISWVRQAPGQGLEWMGGIIPVFDTTNYAQKFQGRVTITADESTSTAYMELSSLRSEDTAVYYCARDMYYDFGVILGGTAVGTNNGSANEVVPADDAFDIWGQGTLVTVSS
VL: QSVLTQPPSVSAAPGQKVTISCSGSSSNIGDNDVSWYQQLPGTAPKLLIYDDDKRPSGIPDRFSGSKSGTSATLGITGLQTGDEADYYCASWDTSLSGGYVFGGGTKLTVL
